Data as given in PubChem BioAssay AID1159591 (NIAID, 2016).

Test: 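Effects of TLR pathway gene knock-down on R848-induced Tnf reporter in macrophages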
Cells: mouse RAW264.7 G9 macrophage reporter clone (GFP-p65, Tnf promoter-mCherry)
Knock-down reagent: single siRNA against mouse genes
Duration: cells assayed 48 to 72 hours after siRNA transfection; R848 for 16 hours before fixing
Treatment: R848 (TLR7/8 agonist) for 16 hours before fixation; dose not given
Measurement: 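mCherry Tnf promoter reporter in nuclei imaged after 16 hours of R848, background removed, robust z relative to non-targeting controls using plate median and MAD, replicate average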
Reading the numbers: mean Tnf reporter z-score: higher = stronger Tnf promoter reporter signal than controls
Call rule: 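Absolute z above 1, 1.5, 2 or 2.5 scores 25 up to 100; no stated active threshold; in practice calls fall at roughly z ≤ -1.5 or z ≥ 1.5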
Calls: active = reporter clearly up or down; inactive = little reporter change
Shown is an unselected part of 756 reagents tested. 130 of them (17%) count as active. 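Active calls include both lower and higher Tnf reporter signal.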 Entries without a mark were called inactive. Reagents against one gene are numbered here. The record does not give: the amount of reagent.

Target gene | siRNA no. | mean Tnf reporter z-score
Cd14 | 1 | -1.54 (active)
Cd14 | 2 | -2.22 (active)
Cd14 | 3 | -0.946
Cd14 | 4 | -1.58 (active)
Cd14 | 5 | -1.18
Cd14 | 6 | 0.684
Map3k14 | 1 | 0.0179
Map3k14 | 2 | 1.26
Map3k14 | 3 | -0.0756
Map3k14 | 4 | -0.0218
Map3k14 | 5 | -1.06
Map3k14 | 6 | -3.16 (active)
Il1b | 1 | 0.605
Il1b | 2 | -1.33
Il1b | 3 | -0.2
Il1b | 4 | 0.787
Il1b | 5 | -0.352
Il1b | 6 | -0.116
Otud5 | 1 | 0.112
Otud5 | 2 | -1.34
Otud5 | 3 | -0.899
Otud5 | 4 | -0.683
Otud5 | 5 | -1.58 (active)
Otud5 | 6 | -0.6
Nfkb2 | 1 | -0.124
Nfkb2 | 2 | -1.11
Nfkb2 | 3 | -1.1
Nfkb2 | 4 | 0.179
Nfkb2 | 5 | -0.0163
Nfkb2 | 6 | -2.08 (active)
Irf7 | 1 | -2.65 (active)
Irf7 | 2 | -0.866
Irf7 | 3 | 0.959
Irf7 | 4 | -0.517
Irf7 | 5 | -0.482
Irf7 | 6 | -0.743
Atf7 | 1 | -1.11
Atf7 | 2 | -0.268
Atf7 | 3 | -1.16
Atf7 | 4 | 0.644
Atf7 | 5 | -0.855
Atf7 | 6 | -1.53 (active)
Fos | 1 | -0.14
Fos | 2 | -1.18
Fos | 3 | -0.421
Fos | 4 | 0.518
Fos | 5 | -0.239
Fos | 6 | -0.345
Ube2v1 | 1 | 0.102
Ube2v1 | 2 | -0.00361
Ube2v1 | 3 | -0.64
Ube2v1 | 4 | 0.163
Ube2v1 | 5 | 2.26 (active)
Ube2v1 | 6 | -1.31
Egr1 | 1 | -1.4
Egr1 | 2 | -0.871
Egr1 | 3 | -1.7 (active)
Egr1 | 4 | 0.379
Egr1 | 5 | -2.67 (active)
Egr1 | 6 | -0.174
Ticam2 | 1 | -0.788
Ticam2 | 2 | -0.598
Ticam2 | 3 | -2.85 (active)
Ticam2 | 4 | 0.00859
Ticam2 | 5 | -0.927
Ticam2 | 6 | -1.53 (active)
Mapk11 | 1 | 1.11
Mapk11 | 2 | -0.793
Mapk11 | 3 | -0.428
Mapk11 | 4 | -0.401
Mapk11 | 5 | -0.51
Mapk11 | 6 | 0.558
Tlr1 | 1 | 0.696
Tlr1 | 2 | 0.25
Tlr1 | 3 | -0.483
Tlr1 | 4 | 0.39
Tlr1 | 5 | -0.435
Tlr1 | 6 | -0.558

3 entries already listed, sorted by “mean Tnf reporter z-score”, descending.
Target gene | siRNA no. | mean Tnf reporter z-score
Cd14 | 6 | 0.684
Map3k14 | 1 | 0.0179
Cd14 | 5 | -1.18
